Test results: patent US10822317B2, “Methods and compositions for wound healing” (QBiotics Limited, priority 2013, dated 2020)
Some entries share one result that the patent states for a list of compounds. At least one structure is not confirmed: it was looked up by name or label, or the drawing left a doubt.

Test system: mouse skin
Assay: Acute inflammatory response in mouse skin
Type: in vivo
Conditions: male nude mice; for time to complete healing of the site: s.c. 50 μL of 100 μg/mL; for time to reddening of injection site: s.c. 50 μL of 100 μg/mL in 20% propylene glycol
Description: Male nude mice were injected subcutaneously on each flank with 50 μL of solutions of 100 μg/mL of Compounds 1, 2, 5 and 42 respectively in 20% propylene glycol. Each site reddened within 4 hr and by 24 hr the affected area covered approximately 1 cm diameter of skin.

| Compound | time to complete healing of the site | time to reddening of injection site |
| --- | --- | --- |
| CC=C(C)C(=O)OC1C(C)C2(O)C(C3OC3(CO)C(O)C3(O)C(=O)C(C)=CC32)C2C(C)(C)C12OC(=O)C(C)CC (stereo not drawn) [Compound 1, 12-tigloyl-13-(2-methylbutanoyl)-6,7-epoxy-4,5,9,12,13,20-hexahydroxy-1-tigliaen-3-one] | ≤ 14 days | ≤ 4 h |
| CCC(C)C(=O)OC1C(C)C2(O)C(C3OC3(CO)C(O)C3(O)C(=O)C(C)=CC32)C2C(C)(C)C12OC(=O)C(C)CC (stereo not drawn) [Compound 2, 12,13-di-(2-methylbutanoyl)-6,7-epoxy-4,5,9,12,13,20-hexahydroxy-1-tigliaen-3-one] | ≤ 14 days | ≤ 4 h |
| CCCCCC(=O)OC1C(C)C2(O)C(C3OC3(CO)C(O)C3(O)C(=O)C(C)=CC32)C2C(C)(C)C12OC(=O)C(C)CC (stereo not drawn) [Compound 5, 12-hexanoyl-13-(2-methylbutanoyl)-6,7-epoxy-4,5,9,12,13,20-hexahydroxy-1-tigliaen-3-one] | ≤ 14 days | ≤ 4 h |
